Data from article PMC8727739.
Residue numbers refer to the chain shown, from its start. Results are given in words; binding and its absence hold for the method and conditions named. In cells and extracts the contact can be indirect. Some results given as binding are weak or reduced against the parent protein; the word gives no strength. Tags and fused reporters may be left off the sequences shown.

Key:
Assay in all cases: co-IP; FLAG-STK11 (wild type or variant) co-transfected with STRADα in HEK293; precipitated with anti-Flag beads, washed three times with NP40; blots with anti-STK11, then anti-STRADα and anti-MO25
[1] = biological target: T1, STK11 R297S, FLAG-tagged (human) (UniProt Q15831)
T1 sequence: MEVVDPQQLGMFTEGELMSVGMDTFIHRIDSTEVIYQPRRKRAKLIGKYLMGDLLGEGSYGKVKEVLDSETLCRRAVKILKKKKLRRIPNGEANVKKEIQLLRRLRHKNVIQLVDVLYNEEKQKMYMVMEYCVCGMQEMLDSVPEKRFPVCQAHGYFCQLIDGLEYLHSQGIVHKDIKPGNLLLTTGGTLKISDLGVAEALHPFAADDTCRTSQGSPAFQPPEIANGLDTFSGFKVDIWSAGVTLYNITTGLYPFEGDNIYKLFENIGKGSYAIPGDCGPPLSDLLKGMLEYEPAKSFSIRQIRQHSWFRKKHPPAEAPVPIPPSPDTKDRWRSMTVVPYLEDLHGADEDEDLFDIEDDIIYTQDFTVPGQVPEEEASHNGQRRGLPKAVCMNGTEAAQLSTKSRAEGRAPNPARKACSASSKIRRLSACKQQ

[2] = biological target: T2, STK11 R297M, FLAG-tagged (human) (UniProt Q15831)
T2 sequence: T1 sequence with S297M

[3] = biological target: T3, Serine/Threonine Kinase 11 (STK11), wild type, FLAG-tagged (human) (UniProt Q15831)
T3 sequence: T1 sequence with S297R

B1: STRADα (protein, UniProt Q7RTN6 1-431)
chain: MSFLVSKPERIRRWVSEKFIVEGLRDLELFGEQPPGDTRRKTNDASSESIASFSKQEVMSSFLPEGGCYELLTVIGKGFEDLMTVNLARYKPTGEYVTVRRINLEACSNEMVTFLQGELHVSKLFNHPNIVPYRATFIADNELWVVTSFMAYGSAKDLICTHFMDGMNELAIAYILQGVLKALDYIHHMGYVHRSVKASHILISVDGKVYLSGLRSNLSMISHGQRQRVVHDFPKYSVKVLPWLSPEVLQQNLQGYDAKSDIYSVGITACELANGHVPFKDMPATQMLLEKLNGTVPCLLDTSTIPAEELTMSPSRSVANSGLSDSLTTSTPRPSNGDSPSHPYHRTFSPHFHHFVEQCLQRNPDARPSASTLLNHSFFKQIKRRASEALPELLRPVTPITNFEGSQSQDHSGIFGLVTNLEELEVDDWEF
With B1 the binding [1] was “no binding”, the binding [2] was “no binding” and the binding [3] was “binds”.
